Measurements reported in article PMC10400533, “Exploring the G-quadruplex binding and unwinding activity of the bacterial FeS helicase DinG”.

Target: T1, DinG helicase (Escherichia coli) (UniProt P27296)
T1 sequence (looked up, limits assumed): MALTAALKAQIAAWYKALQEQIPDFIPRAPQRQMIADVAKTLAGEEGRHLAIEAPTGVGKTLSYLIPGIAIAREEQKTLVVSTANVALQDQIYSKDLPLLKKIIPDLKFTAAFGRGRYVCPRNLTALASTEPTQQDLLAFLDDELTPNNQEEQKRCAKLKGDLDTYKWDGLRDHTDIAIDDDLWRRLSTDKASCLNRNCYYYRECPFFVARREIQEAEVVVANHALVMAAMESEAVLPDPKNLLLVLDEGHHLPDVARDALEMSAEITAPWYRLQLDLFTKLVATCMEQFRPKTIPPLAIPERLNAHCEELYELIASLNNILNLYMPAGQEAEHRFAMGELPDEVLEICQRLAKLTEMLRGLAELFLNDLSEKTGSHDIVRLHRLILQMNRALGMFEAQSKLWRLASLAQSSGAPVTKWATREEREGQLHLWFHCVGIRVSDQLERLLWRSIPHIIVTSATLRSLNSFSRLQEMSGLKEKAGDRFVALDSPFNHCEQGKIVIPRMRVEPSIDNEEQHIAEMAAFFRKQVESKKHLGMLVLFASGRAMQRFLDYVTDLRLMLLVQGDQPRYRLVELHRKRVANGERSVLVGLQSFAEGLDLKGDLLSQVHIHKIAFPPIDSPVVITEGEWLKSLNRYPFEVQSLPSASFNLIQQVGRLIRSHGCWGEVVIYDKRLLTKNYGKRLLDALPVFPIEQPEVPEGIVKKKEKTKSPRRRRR
Test: SPR
Conditions: SPR single-cycle kinetics, 25 C, DinG immobilized, DNA 0.062-1 uM, DNA prepared in 10 mM potassium phosphate, 50 mM KCl, pH 7.5, recombinant protein, protein details: His-tag, folded or branched DNA

AGGGAGGGCGCTGGGAGGAGGG [c-KIT1]
Kd (BRACO-19): 73.9 nM | Kd (PhenDC3): 266 nM | Kd (Pyridostatin (PDS)): 98.3 nM

The exact form of at least one protein or probe is not confirmed. Protein sequences can lack the tags named with them.
